Assay results reported in PMC9663298.
These are yes or no findings as the source states them, for the method shown. In cells and extracts the contact can be indirect. Some results given as binding are weak or reduced against the parent protein; the word gives no strength.

Sequences of proteins named here, by UniProt entry; tags and fusion partners are left off.
UniProt P17844: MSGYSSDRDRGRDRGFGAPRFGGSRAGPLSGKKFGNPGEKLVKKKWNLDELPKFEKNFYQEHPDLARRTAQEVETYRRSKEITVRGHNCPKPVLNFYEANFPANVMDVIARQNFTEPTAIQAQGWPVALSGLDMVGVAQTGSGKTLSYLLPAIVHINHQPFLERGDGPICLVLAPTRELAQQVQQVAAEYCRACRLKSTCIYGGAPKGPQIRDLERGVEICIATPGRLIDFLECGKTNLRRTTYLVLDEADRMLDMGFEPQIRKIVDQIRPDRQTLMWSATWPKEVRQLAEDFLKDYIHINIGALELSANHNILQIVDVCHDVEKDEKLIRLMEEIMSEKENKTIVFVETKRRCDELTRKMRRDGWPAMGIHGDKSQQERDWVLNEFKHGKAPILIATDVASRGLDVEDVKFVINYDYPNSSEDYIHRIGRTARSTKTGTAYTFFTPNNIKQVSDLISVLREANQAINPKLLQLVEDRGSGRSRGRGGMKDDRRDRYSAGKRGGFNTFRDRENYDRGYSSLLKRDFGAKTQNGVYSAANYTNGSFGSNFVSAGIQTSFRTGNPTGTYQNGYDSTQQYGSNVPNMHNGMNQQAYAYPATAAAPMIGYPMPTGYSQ
UniProt Q07955: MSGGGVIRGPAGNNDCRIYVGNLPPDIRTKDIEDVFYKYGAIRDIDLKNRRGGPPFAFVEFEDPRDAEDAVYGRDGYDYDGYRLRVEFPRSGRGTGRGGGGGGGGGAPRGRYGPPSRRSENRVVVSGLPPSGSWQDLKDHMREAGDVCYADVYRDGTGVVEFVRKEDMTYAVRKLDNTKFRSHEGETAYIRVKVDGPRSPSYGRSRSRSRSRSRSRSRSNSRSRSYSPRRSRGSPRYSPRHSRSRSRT

Key:
[1] = molecular target: RNA helicase DDX5 (human (endogenous in NHEKs)) (UniProt P17844); test: co-IP; DDX5 antibody immunoprecipitate from total NHEK lysates, immunoblot with DDX5 and SF2 antibodies
[2] = molecular target: HA-tagged DDX5 (UniProt P17844); test: co-IP; HEK293T or HeLa cells transfected with epitope-tagged DDX5 or SF2; lysis in 250 mM NaCl, 50 mM Hepes pH 7.4, 1 mM EDTA, 1% NP-40; anti-Flag or anti-HA beads, blot for Flag or HA

Row | binding [1] | binding [2] | Substance
1 | binds | – | splicing factor SF2 (also known as SRSF1) (from UniProt Q07955 1-248)
2 | – | binds | Flag-tagged SF2 (from UniProt Q07955 1-248)
